The exact form of at least one protein or probe is not confirmed. For some assays here: A negative result means that nothing was seen under these conditions. For some assays here: A weaker result is weaker than the reference pair of the same experiment.
Columns and labels:
[1] = system: RNA polymerase II (FLAG-Rpb1) + DSIF KOW4-Asp; test: EMSA; settings: Pol II EC, no change vs WT; none; Premix (15 ul) 50 mM HEPES pH 7.5, 200 mM KCl, 1 mM MnCl2, 12% glycerol, 0.5 mM DTT, 0.5 mM UpG, 66 ng/ul BSA, ~4 ng template, ~80 ng Pol II; native protein; label: 5'-Cy5 on bottom strand (strand 1)
[2] = system: RNA polymerase II (FLAG-Rpb1) + DSIF NGN-C.e.; test: EMSA; settings: Pol II EC, no change vs WT; none; Premix (15 ul) 50 mM HEPES pH 7.5, 200 mM KCl, 1 mM MnCl2, 12% glycerol, 0.5 mM DTT, 0.5 mM UpG, 66 ng/ul BSA, ~4 ng template, ~80 ng Pol II; native protein; label: 5'-Cy5 on bottom strand (strand 1)
[3] = system: RNA polymerase II (FLAG-Rpb1) + DSIF NGN-K.p.; test: EMSA; settings: Pol II EC, no change vs WT; none; Premix (15 ul) 50 mM HEPES pH 7.5, 200 mM KCl, 1 mM MnCl2, 12% glycerol, 0.5 mM DTT, 0.5 mM UpG, 66 ng/ul BSA, ~4 ng template, ~80 ng Pol II; native protein; label: 5'-Cy5 on bottom strand (strand 1)
[4] = system: RNA polymerase II (FLAG-Rpb1) + DSIF NGN-K.p._R; test: EMSA; settings: Pol II EC, no change vs WT; none; Premix (15 ul) 50 mM HEPES pH 7.5, 200 mM KCl, 1 mM MnCl2, 12% glycerol, 0.5 mM DTT, 0.5 mM UpG, 66 ng/ul BSA, ~4 ng template, ~80 ng Pol II; native protein; label: 5'-Cy5 on bottom strand (strand 1)
[5] = system: RNA polymerase II (FLAG-Rpb1) + DSIF KOW2-3-S.c.; test: EMSA; settings: Pol II EC, no change vs WT; none; Premix (15 ul) 50 mM HEPES pH 7.5, 200 mM KCl, 1 mM MnCl2, 12% glycerol, 0.5 mM DTT, 0.5 mM UpG, 66 ng/ul BSA, ~4 ng template, ~80 ng Pol II; native protein; label: 5'-Cy5 on bottom strand (strand 1)
[6] = system: RNA polymerase II (FLAG-Rpb1) + DSIF Spt4 (R79E, R82E, K109E); test: EMSA; settings: Pol II EC, no change vs WT; none; Premix (15 ul) 50 mM HEPES pH 7.5, 200 mM KCl, 1 mM MnCl2, 12% glycerol, 0.5 mM DTT, 0.5 mM UpG, 66 ng/ul BSA, ~4 ng template, ~80 ng Pol II; native protein; label: 5'-Cy5 on bottom strand (strand 1)
[7] = system: RNA polymerase II (FLAG-Rpb1) + DSIF WT (Spt5-Spt4); test: EMSA; settings: DSIF: 0.7 pmol no shift, 1.4 pmol incomplete, 2.8 pmol complete shift of Pol II EC; none; Premix (15 ul) 50 mM HEPES pH 7.5, 200 mM KCl, 1 mM MnCl2, 12% glycerol, 0.5 mM DTT, 0.5 mM UpG, 66 ng/ul BSA, ~4 ng template, ~80 ng Pol II; native protein; label: 5'-Cy5 on bottom strand (strand 1)
[8] = system: RNA polymerase II (FLAG-Rpb1) + DSIF NGN-S.c.; test: EMSA; settings: Pol II EC, no change vs WT; none; Premix (15 ul) 50 mM HEPES pH 7.5, 200 mM KCl, 1 mM MnCl2, 12% glycerol, 0.5 mM DTT, 0.5 mM UpG, 66 ng/ul BSA, ~4 ng template, ~80 ng Pol II; native protein; label: 5'-Cy5 on bottom strand (strand 1)
[9] = system: RNA polymerase II (FLAG-Rpb1) + NELF (NELF-A, -B, -D, -E); test: EMSA; settings: NELF alone added to preformed Pol II EC, no DSIF: no shift; none; Premix (15 ul) 50 mM HEPES pH 7.5, 200 mM KCl, 1 mM MnCl2, 12% glycerol, 0.5 mM DTT, 0.5 mM UpG, 66 ng/ul BSA, ~4 ng template, ~80 ng Pol II; native protein; label: 5'-Cy5 on bottom strand (strand 1)
[10] = system: RNA polymerase II (FLAG-Rpb1) + DSIF NGN-K.p. + NELF (NELF-A, -B, -D, -E); test: EMSA supershift; settings: NELF recruitment comparable to WT; none; Premix (15 ul) 50 mM HEPES pH 7.5, 200 mM KCl, 1 mM MnCl2, 12% glycerol, 0.5 mM DTT, 0.5 mM UpG, 66 ng/ul BSA, ~4 ng template, ~80 ng Pol II; native protein; label: 5'-Cy5 on bottom strand (strand 1)
[11] = system: RNA polymerase II (FLAG-Rpb1) + DSIF Spt4 (R79E, R82E, K109E) + NELF (NELF-A, -B, -D, -E); test: EMSA supershift; settings: NELF recruitment no change vs WT; none; Premix (15 ul) 50 mM HEPES pH 7.5, 200 mM KCl, 1 mM MnCl2, 12% glycerol, 0.5 mM DTT, 0.5 mM UpG, 66 ng/ul BSA, ~4 ng template, ~80 ng Pol II; native protein; label: 5'-Cy5 on bottom strand (strand 1)
[12] = system: RNA polymerase II (FLAG-Rpb1) + DSIF NGN-C.e. + NELF (NELF-A, -B, -D, -E); test: EMSA supershift; settings: NELF recruitment comparable to WT; none; Premix (15 ul) 50 mM HEPES pH 7.5, 200 mM KCl, 1 mM MnCl2, 12% glycerol, 0.5 mM DTT, 0.5 mM UpG, 66 ng/ul BSA, ~4 ng template, ~80 ng Pol II; native protein; label: 5'-Cy5 on bottom strand (strand 1)
[13] = system: RNA polymerase II (FLAG-Rpb1) + DSIF NGN-K.p._R + NELF (NELF-A, -B, -D, -E); test: EMSA supershift; settings: NELF recruitment; none; Premix (15 ul) 50 mM HEPES pH 7.5, 200 mM KCl, 1 mM MnCl2, 12% glycerol, 0.5 mM DTT, 0.5 mM UpG, 66 ng/ul BSA, ~4 ng template, ~80 ng Pol II; native protein; label: 5'-Cy5 on bottom strand (strand 1)
[14] = system: RNA polymerase II (FLAG-Rpb1) + DSIF WT (Spt5-Spt4) + NELF (NELF-A, -B, -D, -E); test: EMSA supershift; settings: NELF recruitment, sharper supershift at 2.8 than 1.4 pmol DSIF; none; Premix (15 ul) 50 mM HEPES pH 7.5, 200 mM KCl, 1 mM MnCl2, 12% glycerol, 0.5 mM DTT, 0.5 mM UpG, 66 ng/ul BSA, ~4 ng template, ~80 ng Pol II; native protein; label: 5'-Cy5 on bottom strand (strand 1)
[15] = system: RNA polymerase II (FLAG-Rpb1) + DSIF NGN-S.c. + NELF (NELF-A, -B, -D, -E); test: EMSA supershift; settings: NELF recruitment comparable to WT; none; Premix (15 ul) 50 mM HEPES pH 7.5, 200 mM KCl, 1 mM MnCl2, 12% glycerol, 0.5 mM DTT, 0.5 mM UpG, 66 ng/ul BSA, ~4 ng template, ~80 ng Pol II; native protein; label: 5'-Cy5 on bottom strand (strand 1)
[16] = system: RNA polymerase II (FLAG-Rpb1) + DSIF KOW4-Asp + NELF (NELF-A, -B, -D, -E); test: EMSA supershift; settings: NELF recruitment; none; Premix (15 ul) 50 mM HEPES pH 7.5, 200 mM KCl, 1 mM MnCl2, 12% glycerol, 0.5 mM DTT, 0.5 mM UpG, 66 ng/ul BSA, ~4 ng template, ~80 ng Pol II; native protein; label: 5'-Cy5 on bottom strand (strand 1)
[17] = system: RNA polymerase II (FLAG-Rpb1) + DSIF KOW2-3-S.c. + NELF (NELF-A, -B, -D, -E); test: EMSA supershift; settings: NELF recruitment decreased; none; Premix (15 ul) 50 mM HEPES pH 7.5, 200 mM KCl, 1 mM MnCl2, 12% glycerol, 0.5 mM DTT, 0.5 mM UpG, 66 ng/ul BSA, ~4 ng template, ~80 ng Pol II; native protein; label: 5'-Cy5 on bottom strand (strand 1)

Measured: binding result

GCAGGTCGACTCTAGAGGATCCCGGGAGTGGAATGAGAAATGAAGATCAAAAAAAATTA / GATCTTCATTTCTCATTCCACTCCCGGGATCCTCTAGAGTCGACCTGC
no binding: [9]
binds more weakly: [17]
binds: all other assays above

— paper PMC10482750
